Measurements reported in PubChem BioAssay AID602196 (INSERM, 2012).
The deposit covers about 23,000 reagents; shown is an unselected part. Of all reagents, 455 (2%) were called active. 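Active includes both protection and sensitisation; some change values fall well beyond the stated -50 to +50 range.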 Further read-outs or replicates are left out here. No sequences are given here. The record does not give: the amount of reagent.

Assay: 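Genes whose knock-down alters cisplatin killing of lung cancer cells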
Cells: human A549 lung cancer cells
Knock-down reagent: siRNA pair against human genes
Duration: 48 h transfection before cisplatin; time from cisplatin to read-out not stated
Conditions: cisplatin at a dose killing half of control-siRNA cells; exact dose and duration not given
Detection: 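Cisplatin cell death as a shift from the 50% death seen with control siRNA; siRNAs toxic or growth-blocking alone scored 0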
Direction: two-siRNA summed score (-2 to +2): higher = both siRNAs protect from cisplatin killing; -2 means both sensitise
Rule for the call: 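Each siRNA scores 0 if harmful alone by LDH or WST-1, otherwise +1 if it reduces and -1 if it increases cisplatin killing; a gene is active when both siRNAs agree (sum +2 or -2)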
Calls: active = both siRNAs shift cisplatin killing the same way; inactive = no consistent shift, or siRNA harmful alone

ZMAT5 | two-siRNA summed score (-2 to +2) = 0; Outcome = inactive
LINC01667 | two-siRNA summed score (-2 to +2) = 0; Outcome = inactive
LOC344328 | two-siRNA summed score (-2 to +2) = 1; Outcome = inactive
CLDN9 | two-siRNA summed score (-2 to +2) = 0; Outcome = inactive
RMDN3 | two-siRNA summed score (-2 to +2) = 0; Outcome = inactive
DIS3 | two-siRNA summed score (-2 to +2) = 0; Outcome = inactive
GATAD2A | two-siRNA summed score (-2 to +2) = 0; Outcome = inactive
TP53I13 | two-siRNA summed score (-2 to +2) = 0; Outcome = inactive
RBM47 | two-siRNA summed score (-2 to +2) = 0; Outcome = inactive
PRH1 | two-siRNA summed score (-2 to +2) = 0; Outcome = inactive
LOC391807 | two-siRNA summed score (-2 to +2) = 1; Outcome = inactive
TENM3 | two-siRNA summed score (-2 to +2) = 0; Outcome = inactive

Part of the list above, reformatted.
CLDN9
- two-siRNA summed score (-2 to +2): 0
- Outcome: inactive

RMDN3
- two-siRNA summed score (-2 to +2): 0
- Outcome: inactive

The results go on:
EMC3-AS1 | two-siRNA summed score (-2 to +2) = 0; Outcome = inactive
TRA2B | two-siRNA summed score (-2 to +2) = 0; Outcome = inactive
LOC392179 | two-siRNA summed score (-2 to +2) = 0; Outcome = inactive
MTMR1 | two-siRNA summed score (-2 to +2) = 0; Outcome = inactive
IFNA2 | two-siRNA summed score (-2 to +2) = -1; Outcome = inactive
PLEKHG4B | two-siRNA summed score (-2 to +2) = 0; Outcome = inactive
LOC391030 | two-siRNA summed score (-2 to +2) = 0; Outcome = inactive
LOC340499 | two-siRNA summed score (-2 to +2) = 0; Outcome = inactive
GPX6 | two-siRNA summed score (-2 to +2) = 0; Outcome = inactive
